Data reported in patent US20240117043A1.
No constants are given. Whether binding was seen depends on the method and setting. Some entries that bind do so weakly or less than the wild type.

Protein sequences, listed by entry. Tags and fused reporters are not part of them. Residues count along the entry.
UniProt Q495A1, residues 22-141: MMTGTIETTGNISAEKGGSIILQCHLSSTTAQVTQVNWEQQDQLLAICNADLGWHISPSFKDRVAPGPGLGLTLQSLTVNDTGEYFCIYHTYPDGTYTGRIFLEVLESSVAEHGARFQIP

Molecular target: recombinant human TIGIT (His Tag) (human) (UniProt Q495A1)
Assay: ELISA, plate coated with recombinant human TIGIT (His Tag); hu20 mAb is the reference

B1: hu20 (a recombinant humanized anti-TIGIT monoclonal antibody) (antibody, V domains shown, not shown: a dimerising Fc or GST)
VH: QVQLVQSGAEVKKPGASVKVSCKTSGYAFTEYTMHWVRQAPGKGLEWMGGINPNTGGTTYNQKFQGRVTLTVDKSSSTAYMELSSLRSEDTVVYYCAKLLRLMYYFDYWGQGTLVTVSS
VL: DIQMTQSPSSLSASVGDRVTITCQASQDVRTAVAWYQQKPGKAPKLLIYSASYRYTGVPSRFSGSGSGTDFTFTISSLQPEDIATYYCHQHYITPWTFGGGTKVEIKR
- binding: binds
